Results deposited as PubChem BioAssay AID1259308 (NCATS, 2017)
Here is a random part of about 59,000 deposited reagents. Over the whole deposit, about 1,510 (2.6%) were called active. 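Calls use total luciferase alone and ignore viability, so some active siRNAs may act by altering cell number.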 The numbers tell different reagents against one gene apart. Not all columns of the deposit are shown.

Test: 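Knock-downs that increase output of a recombinant reporter protein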 (primary screen)
Cells: human HEK293 embryonic kidney cells stably expressing firefly luciferase (HEK-CMV-Luc2-Hygro)
Reagents: single siRNA against human genes, 0.8 pmol siRNA per well
Duration: 72 h
Detection: 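Reporter luminescence and viable-cell signal on separate replicate plates, given as percent of non-targeting control and median/MAD z-scores, plus per-cell luciferase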
Scale: total luciferase, z-score: higher = more reporter protein produced
Hit rule: 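Active when the median/MAD z-score for overall luciferase is greater than 3; a gene was taken forward for validation with new siRNAs if at least two of its three siRNAs passed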
Calls: active = raised luciferase; inactive = no rise

total luciferase, z-score, by gene and reagent
POPDC1 (popeye domain cAMP effector 1): #1 0.896 inactive; #2 0.269 inactive; #3 0.938 inactive
ADAMTSL2 (ADAMTS like 2): #1 -0.72 inactive; #2 0.506 inactive; #3 1.44 inactive
SMG8 (SMG8 nonsense mediated mRNA decay factor): #1 0.556 inactive; #2 1.21 inactive; #3 0.381 inactive
RARRES2 (retinoic acid receptor responder 2): #1 -0.594 inactive; #2 -0.0197 inactive; #3 1.99 inactive
RPL34P34 (ribosomal protein L34 pseudogene 34): #1 -2.72 inactive; #2 -2.97 inactive; #3 -2.72 inactive
TEKTL1 (tektin like 1): #1 -0.309 inactive; #2 -2.47 inactive; #3 -1.15 inactive
REM2 (RRAD and GEM like GTPase 2): #1 0.464 inactive; #2 -0.146 inactive; #3 0.346 inactive
COL14A1 (collagen type XIV alpha 1 chain): #1 0.0695 inactive; #2 1.85 inactive; #3 -0.513 inactive
GSPT2 (G1 to S phase transition 2): #1 0.299 inactive; #2 0.151 inactive; #3 0.95 inactive
TMEM237 (transmembrane protein 237): #1 0.955 inactive; #2 0.461 inactive; #3 1.2 inactive
PROX1 (prospero homeobox 1): #1 2.55 inactive; #2 -0.356 inactive; #3 0.932 inactive
SHFL (shiftless antiviral inhibitor of ribosomal frameshifting): #1 0.00117 inactive; #2 0.265 inactive; #3 6.02 active
SLC9A9: #1 -0.466 inactive; #2 1.13 inactive; #3 -0.561 inactive
TAF5L (TATA-box binding protein associated factor 5 like): #1 1.76 inactive; #2 0.0865 inactive; #3 1.04 inactive
PYCARD (PYD and CARD domain containing): #1 0.742 inactive; #2 -0.0548 inactive; #3 0.144 inactive
MPDU1 (mannose-P-dolichol utilization defect 1): #1 1.89 inactive; #2 -0.754 inactive; #3 -1.37 inactive
MFAP5 (microfibril associated protein 5): #1 0.757 inactive; #2 0.628 inactive; #3 1.33 inactive
NPAS1 (neuronal PAS domain protein 1): #1 1.55 inactive; #2 0.496 inactive; #3 1.77 inactive
PIP5K1A (phosphatidylinositol-4-phosphate 5-kinase type 1 alpha): #1 2.71 inactive; #2 0.758 inactive; #3 2.64 inactive
ARR3 (arrestin 3): #1 0.405 inactive; #2 -0.875 inactive; #3 -0.843 inactive
BCAS3 (BCAS3 microtubule associated cell migration factor): #1 -1.43 inactive; #2 -0.943 inactive; #3 -0.152 inactive
AVIL (advillin): #1 -1.3 inactive; #2 1.46 inactive; #3 -0.222 inactive
ASTL (astacin like metalloendopeptidase): #1 0.14 inactive; #2 1.68 inactive; #3 -0.751 inactive
SLC43A2: #1 -0.282 inactive; #2 0.963 inactive; #3 -1.33 inactive
MVP (major vault protein): #1 -0.478 inactive; #2 -1.63 inactive; #3 -0.0566 inactive

Not a retest: 8 of the entries above.
total luciferase, z-score, by gene and reagent
TAF5L (TATA-box binding protein associated factor 5 like): #3 1.04 inactive
PYCARD (PYD and CARD domain containing): #1 0.742 inactive; #2 -0.0548 inactive; #3 0.144 inactive
MPDU1 (mannose-P-dolichol utilization defect 1): #1 1.89 inactive; #2 -0.754 inactive; #3 -1.37 inactive
MFAP5 (microfibril associated protein 5): #1 0.757 inactive
